Experimental data taken from patent US20220257491A1, “Prebiotic Oral Care Compositions and Methods” (Colgate-Palmolive Company, priority 2021, published 2022).
Some of these results come from one statement about several compounds together.

System: P. intermedia virulence genes
Assay: Multi-species biofilm virulence gene expression, SYBR RT-qPCR: P. intermedia
Assay type: cell-based
Conditions: substrate 1 M; range over genes
Method: Biofilms are grown vertically on Calcium Deficient Hydroxyapatite (CAD-HA) disks (Hitemco Medical, Old Bethpage, USA) using the Amsterdam Active Adhesion model. Biofilms are allowed to establish during 24 h (37° C., 170 rpm) under micro-aerophilic conditions (6% O2, 7% CO2, 7% H2, 80% N2). After this 24 h, disks are rinsed 3 times a day for 3 minutes (RT, 250 rpm), for 3 consecutive days, by transferring the lid containing the disks to a new 24-well plate containing 2 mL/well of the appropriate substrate solution. As a negative control, PBS (pH 5.7) without substrate supplementation is used. After each rinsing step, disks are shortly dip-rinsed in a new 24-well plate containing fresh modified BHI medium (2 mL/well) to remove remaining substrate traces. Subsequently, the lid is transferred to another 24-well plate containing fresh modified BHI medium (2 mL/well), followed by incubation (micro-aerophilic, 37° C., 170 rpm) until the next rinsing step.
The expression of 33 virulence genes from 4 periodontal pathogens is analysed to evaluate the relative virulence of the substrate-treated biofilms. For all three substrates, virulence gene expression is determined relatively to the control, and these values are also compared between substrates when this is relevant (Tables 5a-5d).

With O=C[C@@H](O)[C@@H](O)[C@H](O)[C@H](O)CO [D-mannose, D-(+)-mannose] the “P. intermedia virulence gene expression, decreases” value was 2.5- to 33.3 fold.
